Sequences of proteins named here, by UniProt entry; tags and fusion partners are left off. A change or cut given only in a name is not applied to a line headed by its entry.
UniProt P51450: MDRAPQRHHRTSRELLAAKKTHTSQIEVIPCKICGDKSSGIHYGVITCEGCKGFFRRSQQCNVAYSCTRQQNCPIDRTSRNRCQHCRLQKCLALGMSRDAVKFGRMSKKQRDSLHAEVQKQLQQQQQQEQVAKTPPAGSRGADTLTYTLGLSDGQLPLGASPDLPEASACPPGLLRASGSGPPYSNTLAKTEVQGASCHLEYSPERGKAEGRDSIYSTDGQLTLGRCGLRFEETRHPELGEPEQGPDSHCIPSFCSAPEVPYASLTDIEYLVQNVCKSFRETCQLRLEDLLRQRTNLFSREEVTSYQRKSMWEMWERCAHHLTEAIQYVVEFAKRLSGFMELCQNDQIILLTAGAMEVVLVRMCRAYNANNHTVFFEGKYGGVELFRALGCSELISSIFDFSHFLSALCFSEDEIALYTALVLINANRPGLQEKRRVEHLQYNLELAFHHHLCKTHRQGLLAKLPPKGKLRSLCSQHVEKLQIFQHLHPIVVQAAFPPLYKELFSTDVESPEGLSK

About 17,000 (5.5%) of roughly 310,000 compounds were called active. Inconclusive results, whose numbers are uncertain, are shown with a selection of clear calls. Calls come from the whole dose curve; as a rule, active = well fitted inhibition curve with a large enough effect; inconclusive = small, poorly fitted or top-dose-only effect, or effect the other way; inactive = no such curve, though single readings can be large or run the other way. Potencies beside an inconclusive call are fits to weak or partial responses and may not hold up.
What follows are molecules tested against Nuclear receptor ROR-gamma (Mus musculus) (UniProt P51450) (assay: qHTS for inhibitors of ROR gamma transcriptional activity). Conditions: Drosophila S2 Gal4-RORgamma UAS-luciferase reporter, 20 h; activity change, negative = inhibition: at 53.6 µM (top of the series).
How it was run: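 Drosophila S2 cells stably expressing Gal4-DBD/mouse RORγ fusion under metallothionein promoter plus UAS-luciferase; compound 1 h, then 700 uM CuSO4 induction for 20 h at ambient temperature; inhibition read as reduced luminescence.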
For O=C(NCC1CCCO1)c1ccc(N2CCCCC2)nc1 (stereo unspecified), the Potency was inconclusive: 11.2 µM [activator, single point].
For Cc1cc(C)nc(N(C#N)CCOc2ccccc2)n1, the Potency was inconclusive: 31.6 µM [activator, single point].
With C[C@H](C(=O)CC(=O)OC(C)(C)C)[C@H](O)c1ccc(C(F)(F)F)cc1 the Potency was inconclusive: 7.08 µM [activator, partial curve].
COc1ccc(-c2nnc(SCC(=O)Nc3cc(C)on3)o2)cc1 was tested, and the Potency was active: 11.2 µM.
With Nc1nonc1-n1nnc(C(=O)N/N=C/c2cccs2)c1-c1ccc2c(c1)OCO2 the Potency was active: 7.94 µM.
In the case of COc1cc(/C=N/NC(=S)Nc2cccnc2)cc(OC)c1O, the Potency is reported as active: 6.31 µM.
In the case of Cc1ccc2c(C)nc(Nc3nc(CSc4nc5ccccc5[nH]4)cc(=O)[nH]3)nc2c1, the Potency is reported as inconclusive: 31.6 µM [inhibitor, single point].
For CCc1cccc(NS(=O)(=O)c2ccc(-n3cccn3)cc2)c1, the Potency was inconclusive: 11.2 µM [activator, partial curve].
For COc1cc(/C=N/N=C2/NC(=O)C(Cc3ccc(F)cc3)S2)ccc1O (stereo unspecified), the Potency was active: 12.6 µM.
For Nc1c(C(=O)NCc2ccc(Cl)cc2)sc2nc3c(c(C(F)(F)F)c12)CCC3, the “activity change, negative = inhibition” value was inactive: 2.71%.
With COc1ccc2c(c1)C(=O)[C@@H](OC(=O)NCCOc1ccccc1)[C@H](c1ccc(OC)c(Br)c1)O2 the “activity change, negative = inhibition” value was inactive: -26.3%.
In the case of COC(=O)c1cc(-c2ccc(S(=O)(=O)N3CCCCC3)cc2)c(C(F)(F)F)s1, the Potency is reported as inconclusive: 15.8 µM [activator, partial curve, poor fit].
For CCOc1ccc(NC(=O)CN2CCN(CC(=O)c3ccc(OCC)cc3)CC2)cc1, the “activity change, negative = inhibition” value was inactive: 12.8%.
With COc1ccc2c(CC(=O)OCC(=O)Nc3ccc4c(c3)OCO4)coc2c1 the “activity change, negative = inhibition” value was inactive: 1.35%.
For CCOC(=O)c1ccccc1NC(=O)CSc1nc2ccccc2c(=O)[nH]1, the Potency was inconclusive: 2.51 µM [activator, single point].
For CCOC(=O)C(CSCC(=O)c1ccc(Cl)cc1Cl)NC(=O)OC(C)(C)C (stereo unspecified), the Potency was inconclusive: 31.6 µM [inhibitor, single point].
For CCCNC(=O)NC(=O)CSc1nc2ccccc2n1CC(C)C, the Potency was inconclusive: 0.316 µM [activator, full curve, poor fit].
In the case of CCOc1ccccc1NC(=O)c1cc(C(=O)c2cc(Br)ccc2O)coc1=N, the Potency is reported as inconclusive: 31.6 µM [activator, single point].
For O=C(NCCSCc1ccc(Cl)cc1Cl)c1ccc(CN2CCOCC2)cc1, the Potency was inconclusive: 11.2 µM [activator, single point].
Nc1ncnc2sc3c(c12)CCNC3 was tested, and the “activity change, negative = inhibition” value was inactive: -0.217%.
With COc1ccc(C(=O)N/N=C(\C)CC(=O)Nc2ccc(Cl)cn2)cc1 the Potency was active: 5.01 µM.
In the case of CC(Sc1cccc(C(F)(F)F)c1)C(=O)NC(N)=O (stereo unspecified), the “activity change, negative = inhibition” value is reported as inactive: 18.3%.
For Cc1nc(-c2ccccc2)c(Cc2ccccc2O)c(=O)[nH]1, the “activity change, negative = inhibition” value was inactive: 14.4%.
With CCOc1ncccc1C(=O)OCC(=O)c1cc(C)n(Cc2ccco2)c1C the Potency was inconclusive: 20 µM [activator, partial curve, poor fit].
With COc1ccc(C)cc1NC(=O)CN(C)S(=O)(=O)c1ccc2c(c1)n(C)c(=O)c(=O)n2C the “activity change, negative = inhibition” value was inactive: -2.02%.
In the case of COc1ccc2nc(Nc3nc4cc5c(cc4s3)OCCO5)sc2c1, the Potency is reported as active: 12.6 µM.
In the case of C=CCCN(C(Cc1ccccc1)C(=O)OC)S(=O)(=O)c1cc(Br)ccc1Br (stereo unspecified), the Potency is reported as inconclusive: 35.5 µM [activator, single point].
With CCOC(=O)c1sc(NNC(=O)c2ccc(C)cc2)nc1C the Potency was active: 0.794 µM.
In the case of CC(C)C(C)NC(=O)COc1ccc(Sc2ccc(OCC(=O)NC(C)C(C)C)cc2)cc1 (stereo unspecified), the Potency is reported as inconclusive: 2.51 µM [activator, full curve].
For Cc1ccc(N2CC(C(=O)Nc3nnc(SCc4ccccn4)s3)CC2=O)cc1 (stereo unspecified), the Potency was inconclusive: 6.31 µM [activator, single point].
With O=C(CSc1nnc(COc2ccccc2)n1Cc1ccco1)c1ccc(F)cc1 the Potency was inconclusive: 35.5 µM [inhibitor, single point].
In the case of O/N=C/CCn1c(=S)sc2ccccc21, the Potency is reported as inconclusive: 35.5 µM [inhibitor, single point].
O=C(COc1ccc(Cl)cc1Cl)Nc1nnc(C2=COCCO2)o1 was tested, and the Potency was active: 3.16 µM.
Cc1oc(-c2cccs2)nc1CN1CCC(c2ccccc2)CC1 was tested, and the Potency was inconclusive: 5.01 µM [inhibitor, partial curve].
For CCCN1CCC(NC(=S)Nc2ccc([N+](=O)[O-])cc2)CC1, the “activity change, negative = inhibition” value was inactive: -2.65%.
O=c1c(-c2cc(F)cc(F)c2)nc2cncnc2n1C1CC1 was tested, and the “activity change, negative = inhibition” value was inactive: 18.3%.
For O=C(O)c1csc(N/N=C/c2ccc(Br)cc2)n1, the Potency was active: 2.51 µM.
In the case of COc1ccc(N2CCN(c3nc(=S)n(-c4ccccc4)c(C)c3C(C)=O)CC2)cc1, the Potency is reported as inconclusive: 35.5 µM [inhibitor, single point].
O=C(Nc1cccc(F)c1)Nc1ccccn1 was tested, and the Potency was inconclusive: 1.26 µM [activator, full curve].
With OC(CNC1CCCC1)COCCOc1ccc(Br)cc1 (stereo unspecified) the “activity change, negative = inhibition” value was inactive: 9.09%.
With CCOc1ccc(Cl)cc1CNCCCSc1nc(C)cc(C)n1 the Potency was inconclusive: 11.2 µM [activator, partial curve, poor fit].
COc1ccc(-c2n[nH]c(=S)n2-c2cc(OC)ccc2OC)cc1 was tested, and the Potency was active: 10 µM.
In the case of OCCCNC(=S)Nc1ccc(Oc2ccccc2)cc1, the “activity change, negative = inhibition” value is reported as inactive: -13.8%.
O=C1CCCN1c1ccc(S(=O)(=O)Oc2ccc(Cl)cc2)cc1[N+](=O)[O-] was tested, and the “activity change, negative = inhibition” value was inactive: 17.8%.
With S=C(Nc1ccc(Cl)c(Cl)c1)NC1CCN(Cc2ccccc2)CC1 the Potency was inconclusive: 20 µM [inhibitor, single point].
For COc1cccc(N2CCN(c3ncnc4c3[nH]c3ccccc34)CC2C)c1 (stereo unspecified), the Potency was inconclusive: 6.31 µM [activator, single point].
For CC(C)(C)OC(=O)NCCCC[C@H](NC(=O)c1nc[nH]c1C(=O)N[C@@H](CCCCNC(=O)OC(C)(C)C)C(=O)OC(C)(C)C)C(=O)OC(C)(C)C, the Potency was inconclusive: 20 µM [inhibitor, single point].
O=C(CCn1c(=O)oc2ccc(Cl)cc21)N1CCN(Cc2ccccc2)CC1 was tested, and the “activity change, negative = inhibition” value was inactive: 6.2%.
N#CCCCSc1ncccc1-c1nc2ccccc2[nH]1 was tested, and the “activity change, negative = inhibition” value was inactive: 23.8%.
For COc1cc(OC)c(NC(=S)Nc2cccc(C)c2)cc1Cl, the Potency was active: 10 µM.
O=C(CSc1nc2ccc([N+](=O)[O-])cc2[nH]1)NC1CCCCC1 was tested, and the “activity change, negative = inhibition” value was inactive: -26.8%.
CCC(=O)Nc1ccc2c(c1)ncn2CCc1ccccc1 was tested, and the “activity change, negative = inhibition” value was inactive: 24.3%.
For O=C(c1cc(-c2ccccn2)nc2c(Cl)cccc12)N1CCN(S(=O)(=O)c2ccccc2)CC1, the Potency was inconclusive: 20 µM [activator, single point].
COC(=O)CSc1nc(N2CCOCC2)c2c(c1C#N)CC(C)(C)OC2 was tested, and the “activity change, negative = inhibition” value was inactive: 1.68%.
For COc1cc2c(cc1OC)CN(c1ccc3ccccc3n1)CC2, the Potency was inconclusive: 35.5 µM [inhibitor, single point].
With O=C(CCN1C(=O)C2CCCCC2C1=O)Nc1ccc(F)c(F)c1F (stereo unspecified) the “activity change, negative = inhibition” value was inactive: -6.04%.
With CN(Cc1ccccc1)C(=O)c1[nH]cnc1C(=O)N[C@@H](Cc1ccccc1)C(=O)OC(C)(C)C the Potency was inconclusive: 15.8 µM [inhibitor, single point].
Cc1ccc(N/N=C(\C#N)C(=O)c2ccsc2)cc1 was tested, and the Potency was inconclusive: 20 µM [activator, partial curve].
For Cc1ccc(/C=N/n2c(-c3cccs3)n[nH]c2=S)cc1, the Potency was active: 2 µM.
For COc1cc(NC(=S)Nc2cccc(Cl)c2Cl)c(OC)cc1Cl, the Potency was inconclusive: 20 µM [inhibitor, single point].
In the case of N#CC1=C(N)Oc2cc(O)ccc2C1c1cccs1 (stereo unspecified), the Potency is reported as inconclusive: 15.8 µM [inhibitor, single point].
In the case of Cn1c(CSc2nc3ccccc3s2)nc2ccccc21, the Potency is reported as active: 11.2 µM.
In the case of Cc1ccc(Cn2c(=O)c3ccccc3n3c(SCC(=O)N4CCCCC4C)nnc23)cc1 (stereo unspecified), the Potency is reported as inconclusive: 35.5 µM [inhibitor, single point].
For CCCCCCC(=O)N(O)C1CC(=O)N(c2ccc(Br)cc2)C1=O (stereo unspecified), the Potency was inconclusive: 35.5 µM [inhibitor, single point].
For COC(=O)c1c(-c2ccccc2)noc1C, the “activity change, negative = inhibition” value was inactive: -9.21%.
With O=C(NCc1ccccn1)c1cc(S(=O)(=O)N2CCN(c3ccccc3)CC2)ccc1Cl the Potency was inconclusive: 3.16 µM [activator, single point].
With COc1ccc(NC(=O)Nc2ccccc2)cc1S(=O)(=O)N1CCCCC1 the Potency was inconclusive: 35.5 µM [activator, single point].
With CCOC(=O)N(C)S(=O)(=O)c1ccccc1[N+](=O)[O-] the “activity change, negative = inhibition” value was inactive: 14.4%.
With Cn1cccc1/C=N\NC(=O)C1COc2ccc(C(C)(C)C)cc2O1 (stereo unspecified) the Potency was inconclusive: 22.4 µM [inhibitor, single point].
In the case of CCN(CC)S(=O)(=O)c1ccc(C(=O)NNC2=NS(=O)(=O)c3ccccc32)cc1, the “activity change, negative = inhibition” value is reported as inactive: 0.163%.
Cc1nn(Cc2noc(C(=O)NC3CCC(C)CC3)n2)c(C)c1Br (stereo unspecified) was tested, and the “activity change, negative = inhibition” value was inactive: 12.2%.
In the case of COC(=O)c1ccc(CSc2ccc3nnc(-c4ccc(OC)cc4)n3n2)o1, the “activity change, negative = inhibition” value is reported as inactive: -24.6%.
With O=C(O)c1ccc(N/N=C/c2ccc(-c3ccc(Br)cc3)o2)cc1 the Potency was inconclusive: 6.31 µM [activator, partial curve].
For CC(C)Cc1cc(C(=O)Nc2sc3c(c2C#N)CCCC3)no1, the “activity change, negative = inhibition” value was inactive: 2.89%.
With Cn1cnc(S(=O)(=O)N2CCc3ccccc32)c1 the “activity change, negative = inhibition” value was inactive: 16.3%.
In the case of Cc1noc(C)c1C(=O)Nc1ccc(-n2ccc(C(F)(F)F)n2)cc1, the Potency is reported as inconclusive: 12.6 µM [activator, partial curve, poor fit].

Reference: PubChem BioAssay AID2551 (National Center for Advancing Translational Sciences (NCATS), 2010)
% is set by controls: 0 for no effect and ±100 for the full control effect; potency is the fitted concentration of half-maximal effect.
Note: nearly all actives have a fitted effect of over 60% in size.
